This is one part of the list. Small differences around the control level are noise.
Compound: Cc1nc(Nc2ncc(C(=O)Nc3c(C)cccc3Cl)s2)cc(N2CCN(CCO)CC2)n1 [dasatinib]
Assay: log2 fold change of tryptic peptide abundance, ligand vs vehicle (limited proteolysis) (log2 ratio); higher = more trypsin-susceptible (destabilized)
Settings: ligand concentration: 5 uM; sample: K562 cleared lysate

Amino acid sequences for entries named in this document (tags omitted). A change or cut given only in a name is not applied to a line headed by its entry.
UniProt O43852: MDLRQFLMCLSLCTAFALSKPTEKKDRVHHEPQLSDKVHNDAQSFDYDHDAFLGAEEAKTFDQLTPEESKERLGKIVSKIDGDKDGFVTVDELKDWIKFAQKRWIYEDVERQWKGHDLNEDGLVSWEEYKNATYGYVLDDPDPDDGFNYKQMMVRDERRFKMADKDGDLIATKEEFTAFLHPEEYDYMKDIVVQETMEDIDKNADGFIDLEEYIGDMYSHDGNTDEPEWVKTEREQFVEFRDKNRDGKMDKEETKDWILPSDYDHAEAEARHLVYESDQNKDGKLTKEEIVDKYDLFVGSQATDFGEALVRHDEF
UniProt O75167: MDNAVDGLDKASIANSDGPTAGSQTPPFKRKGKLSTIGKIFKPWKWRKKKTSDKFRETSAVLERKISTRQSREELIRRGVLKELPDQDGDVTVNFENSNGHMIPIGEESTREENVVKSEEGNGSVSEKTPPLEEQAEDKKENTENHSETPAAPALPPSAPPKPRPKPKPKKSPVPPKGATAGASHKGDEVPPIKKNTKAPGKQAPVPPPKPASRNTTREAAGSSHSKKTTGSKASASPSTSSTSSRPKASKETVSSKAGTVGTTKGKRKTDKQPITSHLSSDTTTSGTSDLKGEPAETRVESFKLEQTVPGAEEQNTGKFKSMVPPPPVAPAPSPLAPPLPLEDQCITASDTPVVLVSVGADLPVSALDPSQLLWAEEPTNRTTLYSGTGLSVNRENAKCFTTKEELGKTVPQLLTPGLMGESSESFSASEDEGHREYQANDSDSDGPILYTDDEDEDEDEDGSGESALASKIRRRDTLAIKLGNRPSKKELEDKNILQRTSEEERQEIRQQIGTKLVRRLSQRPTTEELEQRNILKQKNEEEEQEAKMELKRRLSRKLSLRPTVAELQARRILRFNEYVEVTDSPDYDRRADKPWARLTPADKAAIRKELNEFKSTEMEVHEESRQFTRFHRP
UniProt O43684, whole entry: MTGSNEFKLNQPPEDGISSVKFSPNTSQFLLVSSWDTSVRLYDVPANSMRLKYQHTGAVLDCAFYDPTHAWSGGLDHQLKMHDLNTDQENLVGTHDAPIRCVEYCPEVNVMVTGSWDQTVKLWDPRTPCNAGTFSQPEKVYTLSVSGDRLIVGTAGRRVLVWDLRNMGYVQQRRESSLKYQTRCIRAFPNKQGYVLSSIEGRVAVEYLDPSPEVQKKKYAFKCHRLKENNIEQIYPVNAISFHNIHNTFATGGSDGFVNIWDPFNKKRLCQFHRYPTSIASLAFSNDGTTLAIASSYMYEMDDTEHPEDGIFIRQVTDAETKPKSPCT
UniProt O60231: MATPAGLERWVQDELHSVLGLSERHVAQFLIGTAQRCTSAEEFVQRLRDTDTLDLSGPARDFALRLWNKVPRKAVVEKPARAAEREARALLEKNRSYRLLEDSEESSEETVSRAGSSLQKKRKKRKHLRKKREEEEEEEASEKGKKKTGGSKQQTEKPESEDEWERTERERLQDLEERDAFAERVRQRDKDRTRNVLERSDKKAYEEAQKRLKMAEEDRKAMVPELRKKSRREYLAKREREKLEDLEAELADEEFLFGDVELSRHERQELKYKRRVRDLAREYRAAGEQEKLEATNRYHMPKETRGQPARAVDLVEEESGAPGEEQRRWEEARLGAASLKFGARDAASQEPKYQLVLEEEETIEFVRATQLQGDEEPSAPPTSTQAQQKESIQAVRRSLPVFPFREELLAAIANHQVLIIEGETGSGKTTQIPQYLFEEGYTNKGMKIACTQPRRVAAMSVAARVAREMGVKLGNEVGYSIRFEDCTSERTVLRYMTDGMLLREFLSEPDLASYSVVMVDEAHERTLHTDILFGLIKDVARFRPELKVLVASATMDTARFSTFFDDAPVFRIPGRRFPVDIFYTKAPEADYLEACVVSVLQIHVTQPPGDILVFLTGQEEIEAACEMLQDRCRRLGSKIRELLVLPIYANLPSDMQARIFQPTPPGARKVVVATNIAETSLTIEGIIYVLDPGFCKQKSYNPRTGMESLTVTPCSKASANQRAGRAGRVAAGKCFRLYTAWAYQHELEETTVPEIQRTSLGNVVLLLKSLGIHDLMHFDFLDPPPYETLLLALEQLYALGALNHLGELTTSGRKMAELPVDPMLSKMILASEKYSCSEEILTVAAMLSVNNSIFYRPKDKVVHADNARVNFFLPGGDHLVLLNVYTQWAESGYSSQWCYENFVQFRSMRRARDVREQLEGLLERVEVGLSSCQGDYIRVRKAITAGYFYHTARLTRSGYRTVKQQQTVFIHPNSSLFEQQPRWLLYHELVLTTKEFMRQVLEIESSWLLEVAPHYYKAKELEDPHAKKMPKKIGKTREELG
UniProt O75161: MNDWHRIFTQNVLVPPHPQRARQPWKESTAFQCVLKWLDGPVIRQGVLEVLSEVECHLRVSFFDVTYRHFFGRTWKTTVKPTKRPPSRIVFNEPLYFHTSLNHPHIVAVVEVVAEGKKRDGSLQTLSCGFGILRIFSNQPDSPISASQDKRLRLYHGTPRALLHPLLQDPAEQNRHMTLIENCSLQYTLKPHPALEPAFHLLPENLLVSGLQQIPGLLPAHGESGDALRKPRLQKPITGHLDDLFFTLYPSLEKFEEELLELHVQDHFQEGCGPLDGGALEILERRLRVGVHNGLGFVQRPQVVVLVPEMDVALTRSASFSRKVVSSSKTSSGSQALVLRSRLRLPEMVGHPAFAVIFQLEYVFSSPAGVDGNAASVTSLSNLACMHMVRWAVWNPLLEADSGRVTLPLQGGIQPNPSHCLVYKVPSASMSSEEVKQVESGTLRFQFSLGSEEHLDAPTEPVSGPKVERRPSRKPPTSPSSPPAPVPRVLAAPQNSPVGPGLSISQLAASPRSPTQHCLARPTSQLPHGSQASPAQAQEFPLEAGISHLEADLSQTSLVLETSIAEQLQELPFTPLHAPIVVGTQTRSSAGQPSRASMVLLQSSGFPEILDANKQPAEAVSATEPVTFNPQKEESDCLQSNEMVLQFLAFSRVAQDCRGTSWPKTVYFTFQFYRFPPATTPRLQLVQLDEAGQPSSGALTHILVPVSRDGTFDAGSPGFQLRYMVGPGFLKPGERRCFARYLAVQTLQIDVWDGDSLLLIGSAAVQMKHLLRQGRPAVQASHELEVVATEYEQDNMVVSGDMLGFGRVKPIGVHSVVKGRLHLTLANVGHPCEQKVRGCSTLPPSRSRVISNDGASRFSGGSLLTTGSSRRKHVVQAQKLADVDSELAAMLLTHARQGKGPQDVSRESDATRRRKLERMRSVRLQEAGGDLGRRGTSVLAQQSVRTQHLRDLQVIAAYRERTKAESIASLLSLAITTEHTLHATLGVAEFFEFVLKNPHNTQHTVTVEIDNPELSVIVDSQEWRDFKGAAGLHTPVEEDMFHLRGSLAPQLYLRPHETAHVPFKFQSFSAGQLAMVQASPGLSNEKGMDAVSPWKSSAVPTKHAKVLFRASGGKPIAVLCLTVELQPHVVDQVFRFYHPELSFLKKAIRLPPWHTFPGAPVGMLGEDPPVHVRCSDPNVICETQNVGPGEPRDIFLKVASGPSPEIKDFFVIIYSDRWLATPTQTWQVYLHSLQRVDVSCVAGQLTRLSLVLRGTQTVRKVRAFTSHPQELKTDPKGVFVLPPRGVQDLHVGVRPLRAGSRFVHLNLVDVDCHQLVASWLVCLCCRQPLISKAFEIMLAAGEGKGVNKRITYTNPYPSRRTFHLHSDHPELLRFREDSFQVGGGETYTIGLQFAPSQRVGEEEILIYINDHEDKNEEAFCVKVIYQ
UniProt O60502: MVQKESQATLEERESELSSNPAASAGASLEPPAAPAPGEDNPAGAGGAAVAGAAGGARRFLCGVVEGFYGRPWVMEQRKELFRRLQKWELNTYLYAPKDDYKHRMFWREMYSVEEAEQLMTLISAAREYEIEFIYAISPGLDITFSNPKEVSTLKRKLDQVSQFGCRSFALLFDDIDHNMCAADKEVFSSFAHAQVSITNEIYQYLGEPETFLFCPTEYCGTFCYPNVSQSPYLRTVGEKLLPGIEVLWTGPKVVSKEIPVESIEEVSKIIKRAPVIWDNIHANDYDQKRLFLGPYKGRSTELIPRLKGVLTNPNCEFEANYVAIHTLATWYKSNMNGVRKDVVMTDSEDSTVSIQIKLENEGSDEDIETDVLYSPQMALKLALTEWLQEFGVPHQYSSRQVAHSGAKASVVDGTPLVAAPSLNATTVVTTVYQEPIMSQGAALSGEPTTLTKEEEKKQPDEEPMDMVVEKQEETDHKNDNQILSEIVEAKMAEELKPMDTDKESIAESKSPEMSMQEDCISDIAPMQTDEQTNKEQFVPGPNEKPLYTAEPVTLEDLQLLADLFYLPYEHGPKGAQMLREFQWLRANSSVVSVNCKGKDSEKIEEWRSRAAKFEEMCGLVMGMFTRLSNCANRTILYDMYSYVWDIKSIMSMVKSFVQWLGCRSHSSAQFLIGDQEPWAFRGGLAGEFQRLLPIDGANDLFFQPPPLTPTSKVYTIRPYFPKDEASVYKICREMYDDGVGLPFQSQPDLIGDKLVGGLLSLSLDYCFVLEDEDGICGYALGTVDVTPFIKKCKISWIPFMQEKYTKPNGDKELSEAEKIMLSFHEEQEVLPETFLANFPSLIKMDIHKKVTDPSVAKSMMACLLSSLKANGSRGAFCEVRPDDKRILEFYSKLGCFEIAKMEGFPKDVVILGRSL
UniProt O43293: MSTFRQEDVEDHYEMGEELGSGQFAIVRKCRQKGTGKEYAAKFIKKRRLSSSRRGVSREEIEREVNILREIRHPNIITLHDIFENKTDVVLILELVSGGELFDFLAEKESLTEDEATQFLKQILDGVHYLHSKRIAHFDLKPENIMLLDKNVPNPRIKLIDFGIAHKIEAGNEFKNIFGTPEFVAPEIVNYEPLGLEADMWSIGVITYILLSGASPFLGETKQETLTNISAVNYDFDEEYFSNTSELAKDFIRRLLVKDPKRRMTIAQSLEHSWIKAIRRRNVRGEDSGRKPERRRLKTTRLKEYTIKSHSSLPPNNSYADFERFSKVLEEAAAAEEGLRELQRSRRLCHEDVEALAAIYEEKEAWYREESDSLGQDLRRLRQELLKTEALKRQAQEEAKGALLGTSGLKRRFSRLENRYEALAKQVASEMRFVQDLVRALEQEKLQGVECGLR
UniProt O60884: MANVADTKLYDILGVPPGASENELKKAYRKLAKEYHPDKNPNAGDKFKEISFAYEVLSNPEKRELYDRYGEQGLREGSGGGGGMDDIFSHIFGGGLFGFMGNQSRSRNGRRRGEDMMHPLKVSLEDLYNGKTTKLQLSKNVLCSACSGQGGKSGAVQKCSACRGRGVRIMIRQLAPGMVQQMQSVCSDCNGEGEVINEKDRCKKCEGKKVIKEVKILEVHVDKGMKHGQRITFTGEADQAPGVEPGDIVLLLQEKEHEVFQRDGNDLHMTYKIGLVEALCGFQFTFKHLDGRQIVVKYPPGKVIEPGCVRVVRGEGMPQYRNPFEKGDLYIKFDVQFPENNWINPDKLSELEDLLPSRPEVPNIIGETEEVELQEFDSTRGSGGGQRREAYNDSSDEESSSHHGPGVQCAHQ
UniProt O75164: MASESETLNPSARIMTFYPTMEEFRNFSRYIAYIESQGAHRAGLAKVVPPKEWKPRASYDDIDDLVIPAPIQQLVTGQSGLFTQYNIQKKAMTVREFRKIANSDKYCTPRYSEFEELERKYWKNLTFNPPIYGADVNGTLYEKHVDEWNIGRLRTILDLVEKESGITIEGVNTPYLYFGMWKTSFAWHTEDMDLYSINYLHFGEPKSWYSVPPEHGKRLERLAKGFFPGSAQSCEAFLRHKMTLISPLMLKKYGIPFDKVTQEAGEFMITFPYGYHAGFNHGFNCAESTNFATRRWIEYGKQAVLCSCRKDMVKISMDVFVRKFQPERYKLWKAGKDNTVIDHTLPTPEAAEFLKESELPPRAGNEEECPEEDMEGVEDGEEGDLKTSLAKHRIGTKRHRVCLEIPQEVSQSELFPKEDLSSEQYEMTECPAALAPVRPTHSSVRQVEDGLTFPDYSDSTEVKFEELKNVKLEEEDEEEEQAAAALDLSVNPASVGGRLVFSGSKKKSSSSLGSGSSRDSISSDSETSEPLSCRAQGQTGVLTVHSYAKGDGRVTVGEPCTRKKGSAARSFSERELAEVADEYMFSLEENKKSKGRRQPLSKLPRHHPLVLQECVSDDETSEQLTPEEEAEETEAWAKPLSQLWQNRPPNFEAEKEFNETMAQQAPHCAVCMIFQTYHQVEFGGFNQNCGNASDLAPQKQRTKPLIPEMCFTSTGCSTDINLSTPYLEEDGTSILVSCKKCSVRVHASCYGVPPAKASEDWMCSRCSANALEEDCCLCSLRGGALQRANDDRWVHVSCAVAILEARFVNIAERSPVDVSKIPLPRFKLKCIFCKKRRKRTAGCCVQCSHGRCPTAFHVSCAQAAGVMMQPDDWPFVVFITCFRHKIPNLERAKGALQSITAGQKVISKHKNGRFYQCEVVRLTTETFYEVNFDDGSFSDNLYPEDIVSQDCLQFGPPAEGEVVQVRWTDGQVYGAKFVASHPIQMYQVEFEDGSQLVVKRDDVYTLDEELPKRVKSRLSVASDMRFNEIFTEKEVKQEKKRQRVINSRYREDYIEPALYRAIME

Target | log2 fold change
CALU (peptide sequence: DWILPSDYDHAEAEAR, peptide start residue: 256) (UniProt O43852) | 0.0836
CDC40 (peptide sequence: QEEEKPGEEK, peptide start residue: 229) (UniProt O60508) | 0.535
XYLB (peptide sequence: ALIEGQFMAK, peptide start residue: 410) (UniProt O75191) | -0.375
PHACTR2 (peptide sequence: KELNEFK, peptide start residue: 677) (UniProt O75167) | 0.377
MITF (peptide sequence: IQELEMQAR, peptide start residue: 392) (UniProt O75030) | -0.319
MAST3 (peptide sequence: HKAEFVPQLEAEDDTSYFDTR, peptide start residue: 651) (UniProt O60307) | -0.415
ZFC3H1 (peptide sequence: KQAEEEER, peptide start residue: 458) (UniProt O60293) | -0.293
BCAS1 (peptide sequence: VPGDSQQEAK, peptide start residue: 207) (UniProt O75363) | -0.595
LCMT2 (peptide sequence: DCDSEWK, peptide start residue: 395) (UniProt O60294) | 0.525
SMARCA5 (peptide sequence: FEDSPSYVKWGK, peptide start residue: 168) (UniProt O60264) | -0.38
UniProt O60232 (peptide sequence: PAPQPPVPRPEHCEGAAAGLK, peptide start residue: 113) | 0.072
PPP1R11 (peptide sequence: KVEWTSDTVDNEHMGR, peptide start residue: 40) (UniProt O60927) | 0.0478
MAGEC1 (peptide sequence: SEGEDSSDPLQRPPEGK, peptide start residue: 58) (UniProt O60732) | -0.172
UniProt O43296 (peptide sequence: HFSIHTGEKPYECVECGK, peptide start residue: 466) | -0.0295
DKC1 (peptide sequence: ADAEVIILPK, peptide start residue: 2) (UniProt O60832) | -0.317
GIGYF1 (peptide sequence: SSPSLSDSYSHLSGRPIR, peptide start residue: 862) (UniProt O75420) | -0.186
ZNF207 (peptide sequence: ILIQHQK, peptide start residue: 25) (UniProt O43670) | -0.485
FIBP (peptide sequence: TFHMLER, peptide start residue: 62) (UniProt O43427) | -0.138
NBN (peptide sequence: NSTSRNPSGINDDYGQLK, peptide start residue: 666) (UniProt O60934) | 0.986

Exported field by field: entries from further up.
MAST3 (peptide sequence: HKAEFVPQLEAEDDTSYFDTR, peptide start residue: 651) (UniProt O60307)
  log2 fold change: -0.415
UniProt O43296 (peptide sequence: HFSIHTGEKPYECVECGK, peptide start residue: 466)
  log2 fold change: -0.0295

Going on with the list:

Target | log2 fold change
UniProt O60356 (peptide sequence: EAAANTNRPSPGGHER, peptide start residue: 49) | -0.0752
RNF40 (peptide sequence: AKAEVDELR, peptide start residue: 696) (UniProt O75150) | 0.149
PJA2 (peptide sequence: SSQDEMVSTK, peptide start residue: 259) (UniProt O43164) | -0.252
BUB3 (peptide sequence: VLVWDLR, peptide start residue: 159) (UniProt O43684) | -0.155
DHX16 (peptide sequence: LRDTDTLDLSGPARDFALR, peptide start residue: 47) (UniProt O60231) | 0.514
GATC (peptide sequence: LALVDFGSR, peptide start residue: 43) (UniProt O43716) | 0.767
PHLPP1 (peptide sequence: AIITEDGKVNGVTESTR, peptide start residue: 1324) (UniProt O60346) | 0.333
MED14 (peptide sequence: LVEGFYPAPGLK, peptide start residue: 949) (UniProt O60244) | -0.372
UniProt O75161 (peptide sequence: KPPTSPSSPPAPVPR, peptide start residue: 474) | 0.585
UniProt O60610 (peptide sequence: HLQIEIEGLIDQMIDKTKVEK, peptide start residue: 456) | 0.372
UniProt O60502 (peptide sequence: YTKPNGDKELSEAEK, peptide start residue: 805) | 0.171
PRMT3 (peptide sequence: QQTPCLFCNR, peptide start residue: 46) (UniProt O60678) | 0.779
PDE8A (peptide sequence: HYVSIIR, peptide start residue: 318) (UniProt O60658) | 0.355
DAPK3 (peptide sequence: EESDSLGQDLR, peptide start residue: 369) (UniProt O43293) | 0.322
KALRN (peptide sequence: LPQASPRPYSSVPAGSEKPPK, peptide start residue: 2258) (UniProt O60229) | 0.125
DNAJA2 (peptide sequence: VSLEDLYNGKTTK, peptide start residue: 122) (UniProt O60884) | 0.479
UniProt O75164 (peptide sequence: YIAYIESQGAHR, peptide start residue: 30) | -0.235
ASNA1 (peptide sequence: LEETLPVIR, peptide start residue: 222) (UniProt O43681) | -0.106

From the supplement of paper PMC12819154, “High-throughput peptide-centric local stability assay extends protein–ligand identification to membrane proteins, tissues and bacteria” (Nature Structural & Molecular Biology, 2025)
